This assay has as its target hIL2-his (human) (UniProt P60568). Put plainly: ELISA (section 2.1.1): antibody (13.3 nM) captured on coated goat anti-human IgG, hIL2-his titrated (the x axis is the antigen concentration), HRP anti-6xHis. (In general: In an ELISA, binding on a coated surface is turned into a signal by an enzyme label.)

Sequences of proteins named here, by UniProt entry; tags and fusion partners are left off. A change or cut given only in a name is not applied to a line headed by its entry.
UniProt P60568: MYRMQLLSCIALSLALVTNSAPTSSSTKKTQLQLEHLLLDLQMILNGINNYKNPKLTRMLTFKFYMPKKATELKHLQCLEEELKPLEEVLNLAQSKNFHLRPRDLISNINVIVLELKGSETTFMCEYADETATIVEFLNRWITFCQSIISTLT

Data on two molecules can be found in US20250346644A1.

No constants are given. Whether binding was seen depends on the method and setting.

B1: S4B6 chimeric antibody (antibody, human IgG1, V domains shown)
VH: EVQLQESGAELVRPGTSVKLSCKVSGDTITAYYLHFVRQRPGQGLEWIGRIDPEDDSTKYAENFKNKATFTADASSNTAYLRLSSLTSEDTATYFCTTVTFYYSRELRWFAYWGQGTLVTVSS
VL: DIQVTQSPASLSASLEEIVTITCQASQDIGNYLSWYQQKLGKSPQLLIHSATSLADGVPSRFSGSRSGTQYSLKINRLQVEDTGIYYCLQHYSTPYTFGAGTKLELK
Take B1: the binding result is recorded as “no binding (tested: 2 µg/mL)”.

B2: hS4B6-H1K1 (antibody, V domains shown)
VH: QVQLQESGPGLVKPSETLSLTCTVSGDTITAYYLHWIRQPPGKGLEWIGRIDPEDDSTKYAENFKNRVTISVDTSKNQFSLKLSSVTAADTAVYYCTTVTFYYSRELRWFAYWGQGTTVTVSS
VL: DIVLTQSPGTLSLSPGERATLSCQASQDIGNYLSWYQQKPGQAPRLLIYSATSLADGIPDRFSGSRSGTDYTLTISRLEPEDFAVYYCLQHYSTPYTFGQGTKVEIK
Turning to B2, the binding result is reported as “no binding (tested: 2 µg/mL)”.
